Results from PubChem BioAssay AID1688 (National Center for Advancing Translational Sciences (NCATS), 2009).
Among all 220,000 compounds or so, about 2,400 (1.1%) were called active. The inconclusive results got no clear call from the source; some entries with a clear call stand among them for comparison. Calls follow the shape of the dose curve; as a rule, active = well fitted inhibition curve with a large enough effect; inconclusive = small, poorly fitted or top-dose-only effect, or effect the other way; inactive = no such curve, though single readings can be large or run the other way. Where the call is inconclusive, the potency comes from a doubtful curve fit.
% is scaled to controls: 0 for no effect and ±100 for the full control effect; potency is read from the fitted curve at half-maximal effect.

Assay: qHTS Multiplex Assay to Identify Dual Action Probes in a Cell Model of Huntington: Aggregate Formation (GFP); also: nearly all actives have a fitted effect of over 60% in size
Details: PC12 HttQ103-GFP aggregates, Acumen cytometry, 40 h; activity change, negative = inhibition: at 46.1 µM (top of the series) unless noted
Method in brief: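 PC12 cells stably carrying ecdysone-inducible HTT exon 1 Q103–GFP were induced with tebufenozide (100 nM final) and treated with library compounds in titration. GFP aggregates in lysates were counted by laser scanning cytometry.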
With O=C(CCl)N(Cc1ccccc1)c1ccccc1 the Potency was inconclusive: 35.5 µM [inhibitor, single point]. With Cc1cccc(/C(N)=N/OC(=O)c2ccc(F)cc2)c1 the Potency was inconclusive: 3.98 µM [activator, single point]. In the case of O=C(Nc1ccc(N2CCOCC2)c(Cl)c1)c1cc(F)c(F)cc1Cl, the Potency is reported as inconclusive: 1.41 µM [activator, partial curve]. With CCc1ccc2[nH]c(=O)c(CN(Cc3ccccc3OC)Cc3nnnn3Cc3ccco3)cc2c1 the Potency was inconclusive: 35.5 µM [inhibitor, single point]. For O=C(Nc1cc(S(=O)(=O)N2CCOCC2)ccc1N1CCCCC1)c1cc(-c2ccccn2)nc2ccccc12, the Potency was inconclusive: 31.6 µM [activator, single point]. For O=[N+]([O-])c1ccc(Oc2ccc(F)cc2)c2ccncc12, the Potency was active: 10 µM. With CC(C)CCOC(=O)C[N+](C)(C)CCOC1CC2CCC1(C)C2(C)C (stereo not drawn) the Potency was inconclusive: 14.1 µM [inhibitor, single point]. With N#C/C(=N\Nc1ccc(S(=O)(=O)N2CCCCC2)cc1)C(N)=S the Potency was inconclusive: 22.4 µM [inhibitor, single point]. With Cc1nc(CSc2nsc(C)c2C#N)cs1 the Potency was inconclusive: 5.62 µM [activator, single point]. With COC(=O)c1c(-c2cccc(C)c2)csc1N the “activity change, negative = inhibition” value was inactive: -28.7%. For CCCN(CCC)S(=O)(=O)c1ccc(C(=O)Nc2nnc(-c3cc(OC)cc(OC)c3)o2)cc1, the Potency was active: 6.31 µM. With CC1(C)Oc2ccc3ccc(=O)oc3c2/C(=C/N)C1=O the Potency was inconclusive: 14.1 µM [inhibitor, single point]. In the case of Cc1ccc(F)c([C@H]2C3C=CCC(c4ccccc4)C3C(=O)N2Cc2ccccc2)c1 (stereo partly drawn), the Potency is reported as inconclusive: 0.316 µM [inhibitor, full curve, poor fit]. In the case of COC(=O)c1ccc(C)c(NC(=O)c2ccc(Cn3cc([N+](=O)[O-])cn3)o2)c1, the Potency is reported as inconclusive: 0.562 µM [activator, full curve, poor fit]. For CCn1cc(C2=NOC(C(=O)Nc3cccc(C(C)=O)c3)C2)c(C)n1 (stereo not drawn), the Potency was active: 0.794 µM. With S=c1sc2c(Cl)ncnc2n1-c1ccccc1 the Potency was inconclusive: 25.1 µM [inhibitor, single point]. For COc1ccc(NS(=O)(=O)c2ccc(OC)c(OC)c2)cc1OC, the Potency was inconclusive: 14.1 µM [inhibitor, single point]. For O=C1CCN(C(=O)c2cccs2)c2ccccc21, the Potency was inconclusive: 12.6 µM [inhibitor, single point]. With CCN(CC)Cc1c(O)ccc2c(=O)c(-c3ccc4c(c3)OCCO4)coc12 the Potency was active: 11.2 µM. With N#Cc1nc(COc2ccccc2)oc1N1CCCCC1 the Potency was inconclusive: 5.62 µM [activator, partial curve]. In the case of COCCCNC(=O)CSc1nc2sc(C(=O)OC)c(C)c2c(=O)n1N, the Potency is reported as inconclusive: 1.78 µM [activator, single point]. For COc1ccc(OCC(=O)N2CCN(C(=O)c3cccc4ccccc34)CC2)cc1, the “activity change, negative = inhibition” value was inactive: -12.6%. With Nc1nc(COc2ccc3ccccc3c2)cs1 the Potency was inconclusive: 35.5 µM [inhibitor, single point]. In the case of CCN(CC)CCCN1C(=O)C(=O)/C(=C(/O)c2ccc3c(c2)OCCO3)C1c1ccc(C)o1 (stereo not drawn), the “activity change, negative = inhibition” value is reported as inactive: -6.76%. In the case of CC(C)NC(=O)/C(C#N)=C/c1ccc2c(c1)OCCO2, the Potency is reported as inconclusive: 20 µM [activator, single point]. For CNc1cc(N2CCCCCC2)ccc1[N+](=O)[O-], the “activity change, negative = inhibition” value was inactive: 7.77%. With C(#CCN1CCCC1)CC(c1ccccc1)c1ccccc1 the activity change, negative = inhibition was inactive: -10.9% [at 9.22 µM]. In the case of O=C1OCCC1Sc1nnnn1-c1ccc(Cl)cc1 (stereo not drawn), the activity change, negative = inhibition is reported as inactive: -14.9% [at 9.22 µM]. With COc1ccccc1NC(=O)N(Cc1ccccc1)c1ccccn1 the Potency was inconclusive: 0.316 µM [inhibitor, full curve, poor fit]. For O=C1COc2ccc(C(=O)CSc3nnc(Cc4cccs4)n3-c3ccc(Cl)cc3)cc2N1, the Potency was inconclusive: 35.5 µM [inhibitor, single point]. With COc1ccc(C(=O)/C(=C\c2ccco2)N2C=CC=CC2=C(C#N)C#N)cc1 the Potency was active: 6.31 µM. For COc1ccc(NC(=O)CSc2nnc(Cc3cccn3C)n2-c2ccc(C)cc2)cc1OC, the Potency was inconclusive: 15.8 µM [activator, single point]. With COc1ccccc1CNC(=O)[C@@H]1CCCN1S(=O)(=O)c1ccc(C)cc1 the “activity change, negative = inhibition” value was inactive: -9.5%. For Cc1cc(C)nc(SC2=CS(=O)(=O)c3ccccc32)n1, the Potency was inconclusive: 3.16 µM [activator, single point]. For O=C(Nc1nccs1)c1ccc(S(=O)(=O)NCC2CCCCC2)cc1, the Potency was inconclusive: 5.62 µM [inhibitor, full curve]. For Cc1cccc(-c2nnc(SCC(=O)C(C)(C)C)n2C)c1, the activity change, negative = inhibition was inactive: -0.904% [at 9.22 µM]. For Cc1ccc(C)c(NS(=O)(=O)c2cc(C(=O)Nc3ccccc3-c3ccccc3)ccc2C)c1, the Potency was inconclusive: 35.5 µM [inhibitor, single point]. In the case of C/C=C/COC(=O)c1[nH]c2c(c1C)C(=O)CC(c1ccco1)C2 (stereo not drawn), the “activity change, negative = inhibition” value is reported as inactive: 9.91%. In the case of O=[N+]([O-])c1ccc2nc(-c3ccc(Cl)cc3)[nH]c2c1, the Potency is reported as inconclusive: 28.2 µM [inhibitor, single point]. In the case of O=C(CSCc1ccccc1)Nc1ccc(F)cc1F, the “activity change, negative = inhibition” value is reported as inactive: 20.7%. In the case of CCCn1c(SCC(=O)c2ccc(OC)c(OC)c2)nc2c1c(=O)n(C)c(=O)n2C, the “activity change, negative = inhibition” value is reported as inactive: -11.6%. In the case of CCOC(=O)c1[nH]c2c(c1-c1ccccc1)C(=O)CC(c1ccc(OCC)cc1)C2 (stereo not drawn), the “activity change, negative = inhibition” value is reported as inactive: -0.488%. With CCOc1ccc2nc(SCC(=O)Nc3cc4c(cc3C(C)=O)OCO4)[nH]c2c1 the “activity change, negative = inhibition” value was inactive: 9%. In the case of COc1cc(CNc2ccc(N3CCN(C(C)=O)CC3)cc2)ccc1OCc1ccccc1, the activity change, negative = inhibition is reported as inactive: 3.32% [at 9.22 µM]. In the case of O=C(COC(=O)C1(c2cccc(F)c2)CCCC1)NCc1ccc2c(c1)OCO2, the “activity change, negative = inhibition” value is reported as inactive: 4.67%. For O=C1CCSc2ccc(Cl)cc2N1Cc1ccccc1, the Potency was inconclusive: 35.5 µM [inhibitor, single point]. For Cn1cnnc1SC/C(O)=C(\C#N)c1nc2ccccc2[nH]1, the Potency was inconclusive: 4.47 µM [activator, single point]. In the case of Cn1c(=O)cc(OCCCC(=O)NCCC2=CCCCC2)c2ccccc21, the Potency is reported as inconclusive: 15.8 µM [activator, single point]. With Cc1ccc(C(=O)N/N=C\c2cccn2C)cn1 the “activity change, negative = inhibition” value was inactive: 5.75%. For O=C(CCl)Nc1cccn2ncnc12, the Potency was active: 20 µM. In the case of CCn1c2ccccc2c2cc(NC(=O)c3cc(OC)c(OC)c(OC)c3)ccc21, the Potency is reported as inconclusive: 12.6 µM [activator, partial curve]. With Cc1ccc(SCc2cn3c(C)csc3n2)cc1 the Potency was inconclusive: 20 µM [inhibitor, partial curve]. For Cc1cccc(OCC(=O)Nc2ccc(S(=O)(=O)Nc3cc(C)nc(C)n3)cc2)c1, the activity change, negative = inhibition was inactive: 20% [at 9.22 µM]. In the case of CCCc1cc(=O)oc2cc(Oc3ncccn3)ccc12, the “activity change, negative = inhibition” value is reported as inactive: -3.57%. In the case of Cc1ccccc1Cn1c(O)c(N=NC(=S)Nc2ccccc2F)c2ccccc21, the Potency is reported as inconclusive: 11.2 µM [inhibitor, partial curve]. In the case of O=c1c(Cl)cc(Cl)nn1-c1ccccc1, the Potency is reported as active: 17.8 µM. For CN(C)S(=O)(=O)Oc1ccc(C(=O)Nc2cccc(C(F)(F)F)c2)cc1, the Potency was inconclusive: 20 µM [inhibitor, single point]. For O=C(Cn1nnc(-c2ccc(CN3CCOCC3)cc2)n1)N(c1ccccc1)c1ccccc1, the Potency was inconclusive: 0.891 µM [inhibitor, single point]. For COc1ccc(-c2c(C)[nH]n3c(=O)c(Cc4ccccc4)c(C)nc23)cc1, the Potency was inconclusive: 14.1 µM [inhibitor, partial curve]. For CCOc1cc(CNCc2ccncc2)cc(Br)c1OCc1ccccc1F, the Potency was active: 10 µM. For O=C(Cn1nnc(-c2ccccc2F)n1)Nc1ccc2c(c1)OCO2, the “activity change, negative = inhibition” value was inactive: -13.7%. With CC(C)c1ccc(C(=O)CSc2n[nH]c(-c3ccncc3)n2)cc1 the Potency was inconclusive: 3.55 µM [activator, single point]. For CC(Oc1ccc(Br)cc1)c1nc2c3ccccc3nc(=S)n2[nH]1 (stereo not drawn), the Potency was active: 8.91 µM. In the case of Cc1ccc(CN(C(=O)CNC(=O)c2cccs2)C(C(=O)NCC2CCCO2)c2ccccc2)cc1 (stereo not drawn), the Potency is reported as inconclusive: 35.5 µM [inhibitor, single point]. In the case of CC(=O)Nc1cccc(Nc2nc(-c3ccccc3F)nc3ccccc23)c1, the Potency is reported as inconclusive: 35.5 µM [inhibitor, single point]. For COC(=O)/N=C/c1c(NCc2ccccc2)nc2c(C)cccn2c1=O, the Potency was inconclusive: 35.5 µM [activator, partial curve]. With Cc1nc2ccccc2c(C)c1C(=O)c1ccc(F)cc1 the Potency was active: 7.94 µM. With N#Cc1ccc(C2=NC(C(F)(F)F)(C(F)(F)F)c3c(n(Cc4ccco4)c(=O)[nH]c3=O)N2)cc1 the Potency was inconclusive: 31.6 µM [inhibitor, single point]. With COc1ccc(CC2S/C(=N/N=C/c3ccccc3O)NC2=O)cc1 (stereo not drawn) the activity change, negative = inhibition was inactive: -17.2% [at 9.22 µM]. For CN(c1ccccc1)S(=O)(=O)c1ccc(NC(=O)c2ccc(-c3ccccc3)cc2)cc1, the Potency was active: 12.6 µM. For CCC1=[N+](CC(=O)c2ccc(C)cc2)CCn2c(C)ccc21, the Potency was inconclusive: 35.5 µM [inhibitor, single point]. In the case of Cn1cccc2[nH]c(=O)nc1-2, the activity change, negative = inhibition is reported as inactive: -14.9% [at 9.22 µM]. In the case of COC(=O)CSc1ncnc2scc(-c3ccccc3)c12, the activity change, negative = inhibition is reported as inactive: -9.17% [at 9.22 µM].
